From PubChem BioAssay AID623959 (National Center for Advancing Translational Sciences (NCATS), 2012) come the findings set out here.

Protein sequences, listed by entry. Tags and fused reporters are not part of them.
UniProt Q8NER1, whole entry, looked up: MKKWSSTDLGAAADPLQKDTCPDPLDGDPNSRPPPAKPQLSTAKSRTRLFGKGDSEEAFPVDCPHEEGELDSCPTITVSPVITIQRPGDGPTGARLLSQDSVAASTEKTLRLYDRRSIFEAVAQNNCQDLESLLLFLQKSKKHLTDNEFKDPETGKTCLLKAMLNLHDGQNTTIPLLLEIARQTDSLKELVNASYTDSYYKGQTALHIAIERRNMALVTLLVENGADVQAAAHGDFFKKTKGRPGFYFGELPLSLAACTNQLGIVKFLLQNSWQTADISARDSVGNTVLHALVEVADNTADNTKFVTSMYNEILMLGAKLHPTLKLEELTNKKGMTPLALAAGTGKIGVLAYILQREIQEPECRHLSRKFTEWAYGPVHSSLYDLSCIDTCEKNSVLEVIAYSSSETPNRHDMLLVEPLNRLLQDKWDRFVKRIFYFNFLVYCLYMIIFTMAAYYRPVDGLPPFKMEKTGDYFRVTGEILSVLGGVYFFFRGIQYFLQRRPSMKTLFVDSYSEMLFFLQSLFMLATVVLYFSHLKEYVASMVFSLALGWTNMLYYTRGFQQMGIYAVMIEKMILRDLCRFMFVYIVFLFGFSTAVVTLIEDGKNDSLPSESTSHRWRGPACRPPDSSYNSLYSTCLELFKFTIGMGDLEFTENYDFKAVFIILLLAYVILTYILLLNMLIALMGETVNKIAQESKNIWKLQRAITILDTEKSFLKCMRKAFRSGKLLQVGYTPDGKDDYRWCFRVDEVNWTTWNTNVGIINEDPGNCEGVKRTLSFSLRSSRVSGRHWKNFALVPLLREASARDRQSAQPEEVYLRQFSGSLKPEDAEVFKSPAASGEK

The whole screen tested about 1,400 compounds, of which fewer than 10 were called active. Inconclusive results (about 8%) are left out. Calls follow the shape of the dose curve; as a rule, active = well fitted curve in the direction sought with a large enough effect; inconclusive = small, poorly fitted or top-dose-only effect, or another doubt; inactive = no such curve, though single readings can be large or run the other way. This is one part of the list.

This assay has as its target Transient receptor potential cation channel subfamily V member 1 (Homo sapiens) (UniProt Q8NER1). Put plainly: qHTS Assay for Compounds that Act as Potentiators of the Vanilloid Receptor 1: Hit Validation. Also: % of control where 0% means no effect. The conditions noted are these: TRPV1-expressing cells, Fluo-8 calcium influx, capsaicin EC20; series mostly up to 42.1 µM; activity change, positive = potentiation: at the top concentration. From the text:
The transient receptor potential ion channel, family V, number 1, (TRPV1) is one of the most important molecular transducers of painful stimuli and a potential target for analgesic drug development. Although recent clinical trials with orthosteric antagonists have not produced a successful drug because of a hyperthermia side effect and their tendency to block thermal noxious pain, this ion channel is undeniably well placed in the pain pathway, and the idea of blocking pain signals before they enter the CNS is an excellent concept and of proven efficacy when TRPV1 agonists are used. We propose a new approach involving allosteric modulation to impose an activity-dependent constraint within the context of inflammation and tissue damage that would alter the responsiveness of the channel in a way that an orthosteric vanilloid antagonist cannot achieve. We believe that the allosteric modulator approach has not been explored for this target. The main goal of this proposal is to identify additional, new, potent allosteric modulators of TRPV1 that can be used to investigate TRPV1 function. Our recent report provides evidence of proof of concept, but the compounds are just at the edge of utility in terms of potency. […] The question of whether they can be used as analgesic agents is complex, but if suitable compounds are identified then testing for analgesic properties will be conducted. Compounds identified as agonists were re-tested in the primary screen for hit validation. NIH Chemical Genomics Center [NCGC] NIH Molecular Libraries Probe Centers Network [MLPCN] MLPCN Grant: MH089480 Assay Submitter (PI): Michael Iadarola, National Institute of Dental and Cranofacial Research
Upon TRPV1 activation in TRPV1 cells, the channel opens and extracellular cations flow through the channel into the cytosol. A calcium binding dye (Fluo-8) becomes fluorescent when bound to calcium. This dye is pre-loaded into cells and is used as a marker for calcium influx. The amount of accumulated calcium is precisely quantified using the FDSS kinetic reader and the calcium dye. For the HTS assay, freshly prepared cells are plated at a density of 2000/well in 3 ul medium in 1536-well plates and cultured overnight at 35.5C. Cells will be loaded with 1 ul of the homogeneous calcium dye (ABD Bioquest) at room temperature for 40 to 90 minutes. Plates will be loaded into the FDSS kinetic reader and a 1 sec / cycle for 10 second baseline signal will be measured. Compound library will then be added with a pintool at 23 nl and measured kinetically for 3 minutes. This portion of the read is considered the agonist portion of the screen. Following the 3 minutes of incubation, an on board pipettor will deliver 1 ul of capsaicin for a final concentration equal to the EC20. Signal will be measured kinetically for an additional 2 minutes. This portion of the read is considered the allosteric enhancer portion of the screen. The FDSS reader has a standard filter set capable of measuring calcium bound Fluo-8 (ex=480 and em=520 nm).
For orientation: qHTS replaces the single test concentration by a dilution series.
As for `O=C(Cc1cn2ccsc2n1)Nc1nc2c(s1)CCCC2`, the “activity change, positive = potentiation” value was inactive: 7.96%.

As for `CCC1CCCCN1Cc1nc2ccccc2c(=O)n1CC(C)=O` (configuration not stated), the “activity change, positive = potentiation” value is inactive: -3.17%.

`CCOC(=O)[C@H]1[C@H]2COc3ccc(C)cc3[C@@H]2N2C(=O)c3ccc(F)cc3NC(=O)[C@@]12C`: the “activity change, positive = potentiation” value is inactive: -39.2%.

For `NC(=O)CSc1nnnn1CC(CC(=O)O)c1ccccc1` (configuration not stated), the “activity change, positive = potentiation” value was inactive: -2.45%.

As to `O=C(N/C(=C\c1ccco1)C(=O)N1CCCC(CO)C1)c1ccccc1` (configuration not stated), the “activity change, positive = potentiation” value was inactive: 4.88%.

`COc1ccccc1NC(=O)c1nn(-c2ccccc2)ccc1=O`: the “activity change, positive = potentiation” value was inactive: -12.1%.

As for `O=C(NCc1ccc(F)cc1)N[C@@H](Cc1ccccc1)C(=O)O`, the “activity change, positive = potentiation” value is inactive: -5.73%.

For the compound `COC(C[C@@H](O)CC(=O)[C@@H](C)OCc1ccccc1)OC`, the “activity change, positive = potentiation” value is inactive: -1.16%.

As to `CCOc1cc(C(=S)N2CCCC2)ccc1O`, the “activity change, positive = potentiation” value was inactive: -21.4%.

Regarding `CC(C)c1ccc(NC(=S)NC2CC3C=CC2C3)cc1` (configuration not stated), the “activity change, positive = potentiation” value is inactive: -39.8%.

Consider `COc1cc(NS(=O)(=O)c2ccc(NC(=O)c3ccc(F)cc3)cc2)ncn1`, for which the “activity change, positive = potentiation” value is inactive: 24.6%.

Consider `COC(=O)c1c(NC(=O)C(=O)N2CCOCC2)sc2c1CCCC2`, for which the “activity change, positive = potentiation” value is inactive: -38.4%.

Take `CCOc1cc(/C=C2\SC(=S)N(C(C(=O)O)c3ccccc3)C2=O)ccc1O` (configuration not stated): the “activity change, positive = potentiation” value was inactive: -16.4%.

As for `O=C1CNC(=S)N1C(CO)c1ccccc1` (configuration not stated), the “activity change, positive = potentiation” value is inactive: -12.1%.

Consider `O=C(NC1CCS(=O)(=O)C1)c1cccc(S(=O)(=O)N2CCOCC2)c1` (configuration not stated), for which the “activity change, positive = potentiation” value is inactive: 4.23%.

Take `CCCOc1ccc(C2Nc3cccc4cccc(c34)N2)cc1`: the “activity change, positive = potentiation” value was inactive: -5.78%.

Turning to `CCCc1nc2nc(C)c(NS(=O)(=O)c3ccc([N+](=O)[O-])cc3)c(=O)n2[nH]1`, the “activity change, positive = potentiation” value was inactive: 3.7%.

For the compound `CC(=O)NS(=O)(=O)c1ccc(NC(=O)CC(C)c2ccccc2)cc1` (configuration not stated), the “activity change, positive = potentiation” value was inactive: -3.07%.

On to `CCc1ccc(NC(=O)c2onc(C)c2Cl)cc1`, for which the “activity change, positive = potentiation” value was inactive: -38.9%.

Regarding `O=C(NC(=S)Nc1ccccc1Br)c1ccco1`, the “activity change, positive = potentiation” value is inactive: 13.2%.

As for `Fc1ccc(CNc2ccccn2)cc1`, the “activity change, positive = potentiation” value is inactive: -3.48%.

For `CC(C)(C)c1ccc(OCCNC(=O)Cc2ccc(F)cc2)cc1`, the “activity change, positive = potentiation” value was inactive: -39.5%.

Take `C=C(C(=O)Nc1ccccc1)c1ccc(C)cc1`: the “activity change, positive = potentiation” value was inactive: -6.44%.

Take `Cc1cc(=O)oc2cc(OCC(=O)N3CCN(c4ccc(F)cc4)CC3)c(Cl)cc12`: the “activity change, positive = potentiation” value is inactive: -5.74%.

On to `Cc1ncoc1C(=O)NC1CC(C)(C)Cc2c1cnn2-c1ccc(F)cc1` (configuration not stated), for which the “activity change, positive = potentiation” value was inactive: -28.8%.

Consider `O=C(NCCC1=CCCCC1)c1ccc([N+](=O)[O-])cc1`, for which the “activity change, positive = potentiation” value was inactive: -37.8%.

In the case of `O=C(Nc1cccc(F)c1)[C@@H]1CCCN1`, the “activity change, positive = potentiation” value was inactive: -3.75%.

In the case of `CCOC(=O)c1c(C)nn(-c2ncccc2NC(=O)CCC(=O)O)c1C`, the “activity change, positive = potentiation” value is inactive: -5.17%.

For the compound `Cc1nc(Nc2cccc(Cl)c2)c2oc3ccccc3c2n1`, the “activity change, positive = potentiation” value is inactive: -38.3%.

Regarding `CON(C)c1nc(Oc2ccc(=O)[nH]n2)nc(N(C)C)n1`, the “activity change, positive = potentiation” value was inactive: -4.27%.

On to `O=C(O)/C=C\C(=O)Nc1ccccc1C#Cc1ccccc1`, for which the “activity change, positive = potentiation” value is inactive: -9.58%.

Regarding `CCc1nnc(NC(=O)Cc2ccc(Br)cc2)s1`, the “activity change, positive = potentiation” value was inactive: -1.27%.

As to `Cc1ccc(C)c(SCC(=O)Nc2cccc(S(=O)(=O)NC3=NCCCCC3)c2)c1`, the “activity change, positive = potentiation” value was inactive: 7.23%.

As for `COc1ccccc1C(=O)NCC(=O)OC(C)C(=O)N(C)C1CCCCC1` (configuration not stated), the “activity change, positive = potentiation” value is inactive: -21.2%.

As to `Cc1cc(C(=O)NCCC2=CCCCC2)ccc1[N+](=O)[O-]`, the “activity change, positive = potentiation” value is inactive: -35.5%.

With `Cc1ccc(Nc2ncnc3c2oc2ccccc23)cc1`, the “activity change, positive = potentiation” value is inactive: -37.9%.

Consider `CCOC(=O)[C@H]1[C@H]2COc3ccc(OC)cc3[C@@H]2N2C(=O)c3ccc(Cl)cc3NC(=O)[C@@]12C`, for which the “activity change, positive = potentiation” value was inactive: -39%.

Consider `O=S(=O)(N/N=C\c1c(F)cccc1Cl)c1ccc(Cl)cc1`, for which the “activity change, positive = potentiation” value is inactive: -6.12%.

In the case of `CC(=O)Nc1ccc(Nc2ncnc3c2cnn3-c2ccc(C)cc2C)cc1`, the “activity change, positive = potentiation” value was inactive: -39.7%.

For `Cc1ccccc1NC(=O)CN1CCN(C)CC1`, the “activity change, positive = potentiation” value is inactive: -3.8%.

Take `Cc1ccc(Cl)cc1N1CCN(S(=O)(=O)c2ccc3[nH]c(=O)c(=O)[nH]c3c2)CC1`: the “activity change, positive = potentiation” value was inactive: 1.54%.

Regarding `Cc1ccc(NC(=O)c2cc3c(s2)CCCC3)cc1`, the “activity change, positive = potentiation” value was inactive: -39.6%.

`CC1CCN(C2=NC(=O)/C(=C/c3ccccc3F)S2)CC1`: the “activity change, positive = potentiation” value was inactive: -39.3%.

As for `O=C1NC(Cc2c[nH]c3ccccc23)C(=O)N1Cc1ccc(CN2C(=O)NC(Cc3c[nH]c4ccccc34)C2=O)cc1` (configuration not stated), the “activity change, positive = potentiation” value was inactive: 9.74%.

Take `CCCCC(=O)Nc1nc2c(s1)COc1ccccc1-2`: the “activity change, positive = potentiation” value is inactive: -25%.

For the compound `Cc1cc(CNC(=S)Nc2ccc(Br)cc2Cl)nn1C`, the “activity change, positive = potentiation” value is inactive: -37.7%.

Regarding `CCN(CC)S(=O)(=O)c1ccc(/C=C/C(=O)Nc2ccc(N3CCOCC3)cc2)cc1`, the “activity change, positive = potentiation” value was inactive: -34.5%.

Consider `CCC1(C)Cc2c(sc(NC(=O)CCC(=O)O)c2C#N)CO1` (configuration not stated), for which the “activity change, positive = potentiation” value is inactive: -7.36%.

As for `Nc1nnc(SCc2cccnc2)s1`, the “activity change, positive = potentiation” value is inactive: -7.07%.

Consider `CC1=C(C)/C(=N\OS(=O)(=O)c2ccc(C)cc2)C=CC1=O`, for which the “activity change, positive = potentiation” value is inactive: -27.4%.

For the compound `O=C(Nc1ccccc1N1CCN(c2ccccc2)CC1)C12CC3CC(CC(C3)C1)C2`, the “activity change, positive = potentiation” value was inactive: -24.7%.

With `CN(C(N)=S)c1ccccc1`, the “activity change, positive = potentiation” value was inactive: -17.3%.

Turning to `Nc1ccc(C(=O)Nc2ccccc2N)cc1`, the “activity change, positive = potentiation” value was inactive: -7.41%.

In the case of `CC(C)(C)NC(=O)CSc1nnc(-c2ccncc2)o1`, the “activity change, positive = potentiation” value is inactive: -0.625%.

Consider `COC(=O)c1cc(NC(=O)Nc2ccccc2)ccc1Cl`, for which the “activity change, positive = potentiation” value is inactive: -37.8%.

As for `CCOC(=O)[C@H]1[C@H]2COc3ccc(OC)cc3[C@@H]2N2C(=O)c3cc(F)c(F)cc3NC(=O)[C@@]12C`, the “activity change, positive = potentiation” value is inactive: -38.2%.

With `CCOC(=O)[C@H]1[C@H]2COc3ccc(OC)cc3[C@@H]2N2C(=O)c3cc(OC)ccc3NC(=O)[C@@]12C`, the “activity change, positive = potentiation” value is inactive: -39.5%.

As to `CCc1cccc(C)c1NC(=S)N(CCCN1CCN(C)CC1)Cc1cccs1`, the “activity change, positive = potentiation” value was inactive: -8.28%.

Consider `COc1ccc(CC(=O)N2CCN(c3cccc(Cl)c3)CC2)cc1OC`, for which the “activity change, positive = potentiation” value is inactive: -36.8%.

Consider `COc1ccc(CCN2C(=O)c3[nH]nc(-c4ccccc4O)c3C2c2cccc(Cl)c2)cc1` (configuration not stated), for which the “activity change, positive = potentiation” value was inactive: 1.93%.

As to `Cc1nc([N+](=O)[O-])c(C(=O)OCc2ccccc2)n1C`, the “activity change, positive = potentiation” value is inactive: -4.18%.

As for `CC(C)Cc1cc(C(=O)Nc2sc3c(c2C#N)CCC3)no1`, the “activity change, positive = potentiation” value is inactive: -1.28%.

With `CC(C)N(Cc1nc(-c2ccc(Cl)cc2)no1)C(=O)CCC1CCCC1`, the “activity change, positive = potentiation” value is inactive: -8.72%.

For the compound `COC(=O)COc1ccc2occ(C(C)=O)c2c1`, the “activity change, positive = potentiation” value is inactive: -2.24%.

Turning to `CCCCCCCCCCCCCCCC(=O)NCCc1c[nH]c2ccccc12`, the “activity change, positive = potentiation” value was inactive: -3%.

On to `NS(=O)(=O)c1ccc(Cl)cc1[N+](=O)[O-]`, for which the “activity change, positive = potentiation” value is inactive: -11.8%.

Turning to `COc1ccc(NC(=O)C2C3C=CC(O3)C2C(=O)O)cc1` (configuration not stated), the “activity change, positive = potentiation” value was inactive: -2.88%.

Turning to `O=C(O)c1ccc(Br)cn1`, the “activity change, positive = potentiation” value was inactive: -5.55%.

As to `N#C/C(=C\c1ccc(O)cc1)C(=O)NCc1cccc(Cl)c1`, the “activity change, positive = potentiation” value is inactive: -6.49%.

As to `CC(=O)c1ccc(Nc2ncnc3c2oc2ccccc23)cc1`, the “activity change, positive = potentiation” value was inactive: -38.7%.

For the compound `CCCCNc1ncnc2c1nnn2Cc1ccccc1Cl`, the “activity change, positive = potentiation” value was inactive: -5.11%.

Take `CCOCCCn1c(=S)[nH]c2cc(C(=O)NCCCN(CC)CC)ccc2c1=O`: the “activity change, positive = potentiation” value is inactive: -6.38%.
